Values of other authors, collected in US20200368246A1, “COMBINATION THERAPY TARGETING CANCER ASSOCIATED WITH THE HEDGEHOG PATHWAY” (priority 2017, published 2020).
For part of these data: At least one compound was matched to its structure with a doubt left. Some results were stated once for a whole list of compounds, not compound by compound.

How the values were obtained:
[1] = tested on: advanced and metastatic basal cell carcinoma; details: monotherapy, phase III clinical trials
[2] = of eight patients with multiple nonbiopsied tumors

Question: With `CS(=O)(=O)c1ccc(C(=O)Nc2ccc(Cl)c(-c3ccccn3)c2)c(Cl)c1` [Erivedge®, vismodegib] as the molecule, how does the “patients who responded to therapy (reduction of tumor burden by greater than 30%)” value [1] read?
Answer: 40%-50%

Question: Which “patients who responded to therapy (reduction of tumor burden by greater than 30%)” value [1] does the source give for `Cc1c(C(=O)Nc2ccc(N3C[C@@H](C)O[C@@H](C)C3)nc2)cccc1-c1ccc(OC(F)(F)F)cc1` [Odomzo®, sonidegib] here?
Answer: 40%-50%

Question: For `CCC(C)n1ncn(-c2ccc(N3CCN(c4ccc(OCC5COC(Cn6cncn6)(c6ccc(Cl)cc6Cl)O5)cc4)CC3)cc2)c1=O` (stereo not drawn) [itraconazole], which “reduction of tumor area” value (basal cell carcinoma; 100 mg or 200 mg twice per day for one month, nineteen patients) is on record?
Answer: 24%

Question: And the “BCC tumors that disappeared completely” value (basal cell carcinoma; after an average of 1.1 or 2.3 months of treatment)?
Answer: none

Question: What about the “patients who achieved partial response” value (basal cell carcinoma; [2]) of the same molecule?
Answer: four

Question: What about the “patients with stable disease” value (basal cell carcinoma; [2]) of the same molecule?
Answer: four
